Experimental data as given in the supplement of paper PMC10849652.
The other results are listed elsewhere or left out.

The chains behind the UniProt entries cited, without tags or fusion partners. Where a name states a change or a piece, a line headed by the entry shows the natural chain unless it says otherwise.
UniProt Q7Z2Z2: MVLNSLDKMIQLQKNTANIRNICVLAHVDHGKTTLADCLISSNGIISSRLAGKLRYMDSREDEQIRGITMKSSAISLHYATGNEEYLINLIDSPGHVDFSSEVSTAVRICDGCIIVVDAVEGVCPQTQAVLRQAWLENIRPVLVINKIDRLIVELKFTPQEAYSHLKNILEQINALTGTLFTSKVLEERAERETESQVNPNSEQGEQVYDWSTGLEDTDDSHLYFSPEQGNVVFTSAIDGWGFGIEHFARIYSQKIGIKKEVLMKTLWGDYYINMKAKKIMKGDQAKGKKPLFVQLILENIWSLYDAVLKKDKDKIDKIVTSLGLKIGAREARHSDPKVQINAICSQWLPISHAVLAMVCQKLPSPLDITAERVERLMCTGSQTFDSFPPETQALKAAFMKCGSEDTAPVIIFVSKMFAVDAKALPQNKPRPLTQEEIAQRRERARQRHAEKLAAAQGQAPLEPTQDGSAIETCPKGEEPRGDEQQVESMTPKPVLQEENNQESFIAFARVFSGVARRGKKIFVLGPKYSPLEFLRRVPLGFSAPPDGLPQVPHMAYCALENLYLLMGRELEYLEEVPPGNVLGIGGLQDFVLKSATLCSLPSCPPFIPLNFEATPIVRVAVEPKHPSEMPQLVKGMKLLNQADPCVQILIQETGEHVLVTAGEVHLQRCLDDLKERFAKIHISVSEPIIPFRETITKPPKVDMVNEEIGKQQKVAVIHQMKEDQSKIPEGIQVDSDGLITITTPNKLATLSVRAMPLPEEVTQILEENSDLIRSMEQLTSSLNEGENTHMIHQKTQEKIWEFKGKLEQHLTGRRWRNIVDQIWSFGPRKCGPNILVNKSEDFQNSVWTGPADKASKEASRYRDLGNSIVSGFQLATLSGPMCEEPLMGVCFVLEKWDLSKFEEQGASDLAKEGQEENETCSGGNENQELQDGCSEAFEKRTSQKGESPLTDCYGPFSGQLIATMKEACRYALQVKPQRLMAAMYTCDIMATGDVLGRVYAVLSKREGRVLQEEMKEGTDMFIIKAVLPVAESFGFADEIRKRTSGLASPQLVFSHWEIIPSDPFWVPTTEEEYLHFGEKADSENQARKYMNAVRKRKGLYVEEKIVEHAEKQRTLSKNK
UniProt Q9H8V3: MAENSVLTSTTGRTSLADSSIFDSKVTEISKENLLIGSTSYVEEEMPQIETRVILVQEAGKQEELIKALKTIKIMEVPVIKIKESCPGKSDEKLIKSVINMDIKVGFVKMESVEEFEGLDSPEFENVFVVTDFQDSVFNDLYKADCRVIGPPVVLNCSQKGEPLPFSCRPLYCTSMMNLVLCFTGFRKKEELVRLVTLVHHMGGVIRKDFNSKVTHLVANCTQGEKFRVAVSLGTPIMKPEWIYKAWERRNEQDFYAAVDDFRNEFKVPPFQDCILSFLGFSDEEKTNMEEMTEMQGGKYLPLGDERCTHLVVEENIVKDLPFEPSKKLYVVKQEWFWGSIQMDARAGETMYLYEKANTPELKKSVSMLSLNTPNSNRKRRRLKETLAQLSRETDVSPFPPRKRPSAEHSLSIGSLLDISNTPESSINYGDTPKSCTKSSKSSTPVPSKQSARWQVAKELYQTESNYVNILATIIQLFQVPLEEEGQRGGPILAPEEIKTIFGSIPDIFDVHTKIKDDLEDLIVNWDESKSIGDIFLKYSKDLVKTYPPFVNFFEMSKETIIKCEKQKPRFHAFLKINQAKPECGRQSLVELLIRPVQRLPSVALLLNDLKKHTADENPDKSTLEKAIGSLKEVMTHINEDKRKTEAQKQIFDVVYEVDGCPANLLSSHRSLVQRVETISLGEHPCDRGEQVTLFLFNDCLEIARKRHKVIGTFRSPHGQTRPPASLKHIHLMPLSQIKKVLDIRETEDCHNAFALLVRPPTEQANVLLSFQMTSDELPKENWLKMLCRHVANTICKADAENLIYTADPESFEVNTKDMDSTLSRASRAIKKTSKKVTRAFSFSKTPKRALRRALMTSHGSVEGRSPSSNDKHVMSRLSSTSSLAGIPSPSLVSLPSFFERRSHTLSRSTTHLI
UniProt Q9Y6G9, whole entry, looked up: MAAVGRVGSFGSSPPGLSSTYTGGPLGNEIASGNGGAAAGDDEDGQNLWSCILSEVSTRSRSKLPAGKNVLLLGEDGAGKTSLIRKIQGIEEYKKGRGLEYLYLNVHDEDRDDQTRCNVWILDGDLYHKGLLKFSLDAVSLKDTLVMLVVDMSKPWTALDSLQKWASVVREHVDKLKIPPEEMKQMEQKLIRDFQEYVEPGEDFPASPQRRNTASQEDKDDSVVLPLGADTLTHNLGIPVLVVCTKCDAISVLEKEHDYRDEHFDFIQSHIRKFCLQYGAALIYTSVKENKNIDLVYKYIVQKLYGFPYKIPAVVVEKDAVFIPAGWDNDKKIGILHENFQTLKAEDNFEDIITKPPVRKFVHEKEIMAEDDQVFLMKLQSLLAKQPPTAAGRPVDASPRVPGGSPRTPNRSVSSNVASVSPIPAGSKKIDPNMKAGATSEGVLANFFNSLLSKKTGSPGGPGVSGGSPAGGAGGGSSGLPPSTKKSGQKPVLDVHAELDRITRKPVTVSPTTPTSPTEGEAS
UniProt Q01658: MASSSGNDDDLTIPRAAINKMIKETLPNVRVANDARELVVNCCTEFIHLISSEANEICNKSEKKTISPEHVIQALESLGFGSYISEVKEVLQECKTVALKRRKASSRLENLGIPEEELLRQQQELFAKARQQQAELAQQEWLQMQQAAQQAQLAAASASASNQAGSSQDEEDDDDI
UniProt Q7Z388: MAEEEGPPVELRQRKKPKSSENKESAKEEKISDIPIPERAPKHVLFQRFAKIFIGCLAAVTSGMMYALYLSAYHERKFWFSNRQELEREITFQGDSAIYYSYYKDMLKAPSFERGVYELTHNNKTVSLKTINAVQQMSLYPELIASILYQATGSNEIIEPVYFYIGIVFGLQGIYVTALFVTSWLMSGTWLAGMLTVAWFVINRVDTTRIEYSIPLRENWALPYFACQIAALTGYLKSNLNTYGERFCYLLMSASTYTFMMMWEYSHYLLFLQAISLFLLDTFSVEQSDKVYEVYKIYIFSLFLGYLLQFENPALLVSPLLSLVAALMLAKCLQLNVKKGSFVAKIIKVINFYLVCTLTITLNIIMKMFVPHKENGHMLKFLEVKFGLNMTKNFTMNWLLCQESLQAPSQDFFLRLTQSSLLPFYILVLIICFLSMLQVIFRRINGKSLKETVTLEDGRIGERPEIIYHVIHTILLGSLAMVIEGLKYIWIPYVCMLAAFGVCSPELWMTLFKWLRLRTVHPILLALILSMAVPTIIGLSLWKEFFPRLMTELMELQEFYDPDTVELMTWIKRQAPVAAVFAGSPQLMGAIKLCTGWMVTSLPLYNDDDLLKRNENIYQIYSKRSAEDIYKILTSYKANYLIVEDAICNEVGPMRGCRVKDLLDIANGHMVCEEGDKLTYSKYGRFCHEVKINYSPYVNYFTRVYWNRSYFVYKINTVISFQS
UniProt Q92785, whole entry, looked up: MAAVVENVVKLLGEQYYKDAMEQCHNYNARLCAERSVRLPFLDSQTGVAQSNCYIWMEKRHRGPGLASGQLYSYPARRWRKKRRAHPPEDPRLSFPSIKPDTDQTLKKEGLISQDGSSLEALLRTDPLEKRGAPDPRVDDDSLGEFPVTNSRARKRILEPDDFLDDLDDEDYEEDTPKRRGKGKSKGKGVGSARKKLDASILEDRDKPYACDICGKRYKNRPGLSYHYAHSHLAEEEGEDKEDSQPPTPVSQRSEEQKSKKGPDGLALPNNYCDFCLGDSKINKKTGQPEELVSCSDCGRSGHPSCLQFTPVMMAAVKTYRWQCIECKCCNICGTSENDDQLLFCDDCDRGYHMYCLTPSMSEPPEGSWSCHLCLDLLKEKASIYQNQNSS
UniProt O60869: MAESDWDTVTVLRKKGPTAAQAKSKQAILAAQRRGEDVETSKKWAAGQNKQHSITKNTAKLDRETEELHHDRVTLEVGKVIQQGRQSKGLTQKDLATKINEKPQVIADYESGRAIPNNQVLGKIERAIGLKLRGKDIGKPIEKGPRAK
UniProt P23919: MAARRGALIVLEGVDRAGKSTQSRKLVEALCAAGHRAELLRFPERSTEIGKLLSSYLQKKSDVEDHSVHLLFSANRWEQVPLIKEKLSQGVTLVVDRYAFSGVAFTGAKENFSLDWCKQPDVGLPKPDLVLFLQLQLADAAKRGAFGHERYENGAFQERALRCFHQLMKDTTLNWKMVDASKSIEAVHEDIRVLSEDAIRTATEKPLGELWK
UniProt P57772: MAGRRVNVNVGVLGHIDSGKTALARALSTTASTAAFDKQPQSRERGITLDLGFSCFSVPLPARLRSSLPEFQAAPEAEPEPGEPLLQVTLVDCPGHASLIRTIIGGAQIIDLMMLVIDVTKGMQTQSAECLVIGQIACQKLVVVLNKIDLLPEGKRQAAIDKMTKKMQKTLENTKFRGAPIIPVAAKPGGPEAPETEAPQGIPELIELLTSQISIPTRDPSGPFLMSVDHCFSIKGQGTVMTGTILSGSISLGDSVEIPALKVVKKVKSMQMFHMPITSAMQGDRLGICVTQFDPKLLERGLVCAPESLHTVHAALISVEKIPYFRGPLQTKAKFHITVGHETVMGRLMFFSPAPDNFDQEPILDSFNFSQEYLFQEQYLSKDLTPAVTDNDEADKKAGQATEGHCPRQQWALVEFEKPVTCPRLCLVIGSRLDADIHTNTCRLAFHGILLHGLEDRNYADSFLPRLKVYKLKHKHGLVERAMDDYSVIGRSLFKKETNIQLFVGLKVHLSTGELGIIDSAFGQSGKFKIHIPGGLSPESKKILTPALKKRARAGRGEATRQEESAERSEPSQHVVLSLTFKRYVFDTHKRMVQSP
UniProt Q02487, whole entry, looked up: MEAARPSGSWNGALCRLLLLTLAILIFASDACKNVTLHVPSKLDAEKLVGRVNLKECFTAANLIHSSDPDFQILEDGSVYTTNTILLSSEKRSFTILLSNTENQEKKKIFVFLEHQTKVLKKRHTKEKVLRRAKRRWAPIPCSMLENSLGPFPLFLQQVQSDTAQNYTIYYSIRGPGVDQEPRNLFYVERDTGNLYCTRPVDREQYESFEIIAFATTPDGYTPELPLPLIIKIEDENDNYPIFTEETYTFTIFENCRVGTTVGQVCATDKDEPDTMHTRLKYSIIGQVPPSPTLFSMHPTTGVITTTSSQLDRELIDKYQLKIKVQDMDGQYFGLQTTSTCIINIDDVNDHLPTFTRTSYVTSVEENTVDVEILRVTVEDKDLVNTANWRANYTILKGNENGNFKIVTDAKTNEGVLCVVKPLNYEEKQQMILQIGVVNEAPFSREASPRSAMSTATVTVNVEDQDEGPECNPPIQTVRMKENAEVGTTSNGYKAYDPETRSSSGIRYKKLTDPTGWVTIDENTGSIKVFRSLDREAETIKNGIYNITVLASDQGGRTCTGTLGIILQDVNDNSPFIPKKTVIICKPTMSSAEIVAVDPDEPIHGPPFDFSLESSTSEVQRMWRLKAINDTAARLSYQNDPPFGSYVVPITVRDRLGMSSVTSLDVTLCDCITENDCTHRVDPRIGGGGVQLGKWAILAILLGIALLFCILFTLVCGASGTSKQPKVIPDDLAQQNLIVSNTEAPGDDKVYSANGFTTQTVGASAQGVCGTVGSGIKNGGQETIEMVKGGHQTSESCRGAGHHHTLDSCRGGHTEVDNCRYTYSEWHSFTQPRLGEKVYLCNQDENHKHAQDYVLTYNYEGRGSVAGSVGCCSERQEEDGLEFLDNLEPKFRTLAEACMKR
UniProt O77932: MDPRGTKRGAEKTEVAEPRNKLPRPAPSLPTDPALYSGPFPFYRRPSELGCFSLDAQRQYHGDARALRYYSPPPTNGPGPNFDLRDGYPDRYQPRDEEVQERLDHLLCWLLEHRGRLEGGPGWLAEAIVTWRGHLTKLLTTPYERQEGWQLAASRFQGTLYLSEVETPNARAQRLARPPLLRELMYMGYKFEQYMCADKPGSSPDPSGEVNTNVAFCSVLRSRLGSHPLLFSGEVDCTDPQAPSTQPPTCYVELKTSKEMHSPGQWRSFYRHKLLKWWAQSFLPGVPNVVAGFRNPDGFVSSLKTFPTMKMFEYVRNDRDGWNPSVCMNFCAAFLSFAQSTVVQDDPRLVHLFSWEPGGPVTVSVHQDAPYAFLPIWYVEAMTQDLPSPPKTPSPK
UniProt Q9GZT9: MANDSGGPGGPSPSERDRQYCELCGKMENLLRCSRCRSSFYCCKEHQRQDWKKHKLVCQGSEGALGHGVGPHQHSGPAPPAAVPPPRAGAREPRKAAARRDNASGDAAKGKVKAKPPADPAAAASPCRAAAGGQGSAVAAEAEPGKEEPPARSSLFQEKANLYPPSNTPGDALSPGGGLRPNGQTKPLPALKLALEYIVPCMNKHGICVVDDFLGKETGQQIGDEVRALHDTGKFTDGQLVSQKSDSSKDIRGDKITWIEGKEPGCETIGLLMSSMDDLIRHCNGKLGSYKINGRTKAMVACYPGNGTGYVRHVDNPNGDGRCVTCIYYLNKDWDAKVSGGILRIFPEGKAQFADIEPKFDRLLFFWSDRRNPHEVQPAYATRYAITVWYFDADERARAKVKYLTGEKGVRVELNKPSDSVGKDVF

These targets were tested with C#Cc1cccc(Nc2ncnc3cc(OCCOC)c(OCCOC)cc23)c1 [erlotinib] (assay: log2 fold change, soluble protein after heating vs DMSO (PISA); higher = thermal stabilisation; K562 lysate, 10 uM; active = over 0.2 and 3.5 SD of the protein, either way, in both replicates (recomputed)).
Summary of the method: (§1)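 Soluble protein was defined as the supernatant remaining after 21,000xg for 90 min, following pooling of heated aliquots and adjustment to 0.5% NP-40 at 4°C. Before that, crude K562 extract at 1 mg/mL protein in PBS pH 7.4 with 1 mM MgCl2 was treated with 10 μM compound for 30 min and heated for 3 min across 48°C-58°C. Quantification used TMTpro 16plex LC-MS/MS with channel sums equalised, and values are log-two fold changes in thermal stability relative to solvent controls from duplicates.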

log2 fold change, inactive:
DVL3 (UniProt Q92997) 0.005
EEF1AKNMT (UniProt Q8N6R0) 0.048
DUS4L (UniProt O95620) 0.03
DPH6 (UniProt Q7L8W6) 0.005
EFL1 (UniProt Q7Z2Z2) -0.006
EARS2 (UniProt Q5JPH6) 0.005
ECT2 (UniProt Q9H8V3) -0.016
DSG2 (UniProt Q14126) -0.018
DRAP1 isoform 2 (UniProt Q14919) -0.058
DYNC1LI1 (UniProt Q9Y6G9) 0.001
EHD2 (UniProt Q9NZN4) 0.048
E2F3 (UniProt O00716) -0.014
DR1 (UniProt Q01658) 0.052
DYNC1H1 (UniProt Q14204) 0.018
DUS3L (UniProt Q96G46) -0.009
DPH2 (UniProt Q9BQC3) -0.029
DYNC1LI2 (UniProt O43237) 0.001
EEA1 (UniProt Q15075) -0.025
DSCC1 (UniProt Q9BVC3) 0.035
ECI1 (UniProt P42126) -0.028
E2F4 (UniProt Q16254) 0.048
DYNLL1 (UniProt P63167) 0.021
DYNC1I2 isoform 2 (UniProt Q13409) -0.012
DPY19L4 (UniProt Q7Z388) -0.058
EFCAB14 (UniProt O75071) 0.019
DYRK1A (UniProt Q13627) -0.061
DPF2 (UniProt Q92785) -0.036
DSTN (UniProt P60981) -0.038
ECHS1 (UniProt P30084) 0.009
EFTUD2 (UniProt Q15029) -0.018
EDF1 (UniProt O60869) 0.013
DTYMK (UniProt P23919) -0.013
EEFSEC (UniProt P57772) -0.006
DSC2 (UniProt Q02487) 0.075
DXO (UniProt O77932) -0.028
DUSP23 (UniProt Q9BVJ7) -0.026
EGLN1 (UniProt Q9GZT9) 0.006
EEF1B2 (UniProt P24534) 0.009
EAPP (UniProt Q56P03) 0.012
EDEM3 (UniProt Q9BZQ6) -0.016

These targets were tested with C/C(=N\NC(=O)C1=CC(=CC=C1)S(=O)(=O)N2CCOCC2)/C3=C(C=CC(=C3)Cl)O in the same assay as above.
Summary of the method: as §1

log2 fold change, active:
EAPP (UniProt Q56P03) 0.349

log2 fold change, inactive:
DVL3 (UniProt Q92997) 0.013
EEF1AKNMT (UniProt Q8N6R0) 0.029
DUS4L (UniProt O95620) 0.02
DPH6 (UniProt Q7L8W6) 0.02
EFL1 (UniProt Q7Z2Z2) 0
EARS2 (UniProt Q5JPH6) 0.043
ECT2 (UniProt Q9H8V3) 0.001
DSG2 (UniProt Q14126) 0.016
DRAP1 isoform 2 (UniProt Q14919) -0.16
DYNC1LI1 (UniProt Q9Y6G9) 0.022
EHD2 (UniProt Q9NZN4) -0.167
E2F3 (UniProt O00716) 0.093
DR1 (UniProt Q01658) 0.013
DYNC1H1 (UniProt Q14204) 0.015
DUS3L (UniProt Q96G46) -0.001
DPH2 (UniProt Q9BQC3) -0.03
DYNC1LI2 (UniProt O43237) 0.011
EEA1 (UniProt Q15075) 0.015
DSCC1 (UniProt Q9BVC3) 0.154
ECI1 (UniProt P42126) -0.087
E2F4 (UniProt Q16254) -0.033
DYNLL1 (UniProt P63167) 0.051
DYNC1I2 isoform 2 (UniProt Q13409) -0.032
DPY19L4 (UniProt Q7Z388) 0.037
EFCAB14 (UniProt O75071) 0.115
DYRK1A (UniProt Q13627) -0.057
DPF2 (UniProt Q92785) -0.047
DSTN (UniProt P60981) -0.027
ECHS1 (UniProt P30084) 0.006
EFTUD2 (UniProt Q15029) 0.007
EDF1 (UniProt O60869) 0.004
DTYMK (UniProt P23919) 0.025
EEFSEC (UniProt P57772) 0.054
DSC2 (UniProt Q02487) -0.101
DXO (UniProt O77932) -0.075
DUSP23 (UniProt Q9BVJ7) 0.007
EGLN1 (UniProt Q9GZT9) 0.016
EEF1B2 (UniProt P24534) -0.016
EDEM3 (UniProt Q9BZQ6) 0.004
